Laboratory results reported in paper PMC7321154 (Molecules, 2020).

Test: general procedure: Fmoc solid-phase peptide synthesis; 2-chlorotrityl chloride resin (2-CTC); PyBOP (folic acid coupling on resin)
[1] = whole synthesis, LC-MS, scale of the general procedure 319 mg resin

Question: With NODAGA(tBu)3-[Lys-(HE)2]-Folic Acid as the substance, how does the conjugation yield (conjugation step) read?
Answer: The conjugation yield was 25%.

Question: And the “final LC-MS purity” value (conjugation step, LC-MS)?
Answer: Its value is 99%.

Question: Which step yield (late stage modification step) does the source give for NODAGA-[Lys-(HE)2]-folic acid here?
Answer: Its step yield is 86%.

Question: What about the “crude LC-MS purity” value (late stage modification step, LC-MS) of the same substance?
Answer: Its value is 94%.

Question: What about the “purity (crude or final not stated)” value [1] of the same substance?
Answer: Its value is no less than 99%.

Question: With [Lys-(HE)2]-Folic Acid as the substance, how does the crude mass (whole synthesis) read?
Answer: Its crude mass is 116 mg.

Question: And the “crude LC-MS purity” value [1]?
Answer: The value was 92%.

Question: And the crude yield (whole synthesis, scale of the general procedure 319 mg resin)?
Answer: The crude yield was 52%.
